# Measurements published in article PMC9724678.
# Amino acid sequences for entries named in this document (tags omitted).
# UniProt Q86VP1: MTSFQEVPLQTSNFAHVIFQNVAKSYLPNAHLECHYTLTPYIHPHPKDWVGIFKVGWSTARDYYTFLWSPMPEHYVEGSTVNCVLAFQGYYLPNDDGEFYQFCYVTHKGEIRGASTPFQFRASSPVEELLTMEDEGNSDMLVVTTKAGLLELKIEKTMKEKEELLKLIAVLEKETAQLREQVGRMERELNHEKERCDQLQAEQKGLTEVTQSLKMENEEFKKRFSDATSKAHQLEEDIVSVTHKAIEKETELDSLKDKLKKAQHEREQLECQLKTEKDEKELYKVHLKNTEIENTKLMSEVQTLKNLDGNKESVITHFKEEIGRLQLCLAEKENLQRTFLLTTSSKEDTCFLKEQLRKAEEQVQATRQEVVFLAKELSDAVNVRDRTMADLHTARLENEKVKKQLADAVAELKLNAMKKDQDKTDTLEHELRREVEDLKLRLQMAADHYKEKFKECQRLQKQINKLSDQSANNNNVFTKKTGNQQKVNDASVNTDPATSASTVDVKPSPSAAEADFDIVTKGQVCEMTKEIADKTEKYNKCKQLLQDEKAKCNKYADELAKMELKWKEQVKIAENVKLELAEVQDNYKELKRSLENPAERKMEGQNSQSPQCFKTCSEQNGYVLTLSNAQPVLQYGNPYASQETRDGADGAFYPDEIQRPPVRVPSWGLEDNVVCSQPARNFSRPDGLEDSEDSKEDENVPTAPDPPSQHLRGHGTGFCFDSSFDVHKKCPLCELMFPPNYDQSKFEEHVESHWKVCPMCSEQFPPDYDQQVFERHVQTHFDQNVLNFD
# B1: DUB UPS15 (protein, UniProt Q9Y4E8 1-981)
# chain: MAEGGAADLDTQRSDIATLLKTSLRKGDTWYLVDSRWFKQWKKYVGFDSWDKYQMGDQNVYPGPIDNSGLLKDGDAQSLKEHLIDELDYILLPTEGWNKLVSWYTLMEGQEPIARKVVEQGMFVKHCKVEVYLTELKLCENGNMNNVVTRRFSKADTIDTIEKEIRKIFSIPDEKETRLWNKYMSNTFEPLNKPDSTIQDAGLYQGQVLVIEQKNEDGTWPRGPSTPKSPGASNFSTLPKISPSSLSNNYNNMNNRNVKNSNYCLPSYTAYKNYDYSEPGRNNEQPGLCGLSNLGNTCFMNSAIQCLSNTPPLTEYFLNDKYQEELNFDNPLGMRGEIAKSYAELIKQMWSGKFSYVTPRAFKTQVGRFAPQFSGYQQQDCQELLAFLLDGLHEDLNRIRKKPYIQLKDADGRPDKVVAEEAWENHLKRNDSIIVDIFHGLFKSTLVCPECAKISVTFDPFCYLTLPLPMKKERTLEVYLVRMDPLTKPMQYKVVVPKIGNILDLCTALSALSGIPADKMIVTDIYNHRFHRIFAMDENLSSIMERDDIYVFEININRTEDTEHVIIPVCLREKFRHSSYTHHTGSSLFGQPFLMAVPRNNTEDKLYNLLLLRMCRYVKISTETEETEGSLHCCKDQNINGNGPNGIHEEGSPSEMETDEPDDESSQDQELPSENENSQSEDSVGGDNDSENGLCTEDTCKGQLTGHKKRLFTFQFNNLGNTDINYIKDDTRHIRFDDRQLRLDERSFLALDWDPDLKKRYFDENAAEDFEKHESVEYKPPKKPFVKLKDCIELFTTKEKLGAEDPWYCPNCKEHQQATKKLDLWSLPPVLVVHLKRFSYSRYMRDKLDTLVDFPINDLDMSEFLINPNAGPCRYNLIAVSNHYGGMGGGHYTAFAKNKDDGKWYYFDDSSVSTASEDQIVSKAAYVLFYQRQDTFSGTGFFPLDRETKGASAATGIPLESDEDSNDNDNDIENENCMHTN
# B2: myosin-VI, Q9UM54 1-1294 (protein)
# chain: MEDGKPVWAPHPTDGFQMGNIVDIGPDSLTIEPLNQKGKTFLALINQVFPAEEDSKKDVEDNCSLMYLNEATLLHNIKVRYSKDRIYTYVANILIAVNPYFDIPKIYSSEAIKSYQGKSLGTRPPHVFAIADKAFRDMKVLKMSQSIIVSGESGAGKTENTKFVLRYLTESYGTGQDIDDRIVEANPLLEAFGNAKTVRNNNSSRFGKFVEIHFNEKSSVVGGFVSHYLLEKSRICVQGKEERNYHIFYRLCAGASEDIREKLHLSSPDNFRYLNRGCTRYFANKETDKQILQNRKSPEYLKAGSMKDPLLDDHGDFIRMCTAMKKIGLDDEEKLDLFRVVAGVLHLGNIDFEEAGSTSGGCNLKNKSAQSLEYCAELLGLDQDDLRVSLTTRVMLTTAGGTKGTVIKVPLKVEQANNARDALAKTVYSHLFDHVVNRVNQCFPFETSSYFIGVLDIAGFEYFEHNSFEQFCINYCNEKLQQFFNERILKEEQELYQKEGLGVNEVHYVDNQDCIDLIEAKLVGILDILDEENRLPQPSDQHFTSAVHQKHKDHFRLTIPRKSKLAVHRNIRDDEGFIIRHFAGAVCYETTQFVEKNNDALHMSLESLICESRDKFIRELFESSTNNNKDTKQKAGKLSFISVGNKFKTQLNLLLDKLRSTGASFIRCIKPNLKMTSHHFEGAQILSQLQCSGMVSVLDLMQGGYPSRASFHELYNMYKKYMPDKLARLDPRLFCKALFKALGLNENDYKFGLTKVFFRPGKFAEFDQIMKSDPDHLAELVKRVNHWLTCSRWKKVQWCSLSVIKLKNKIKYRAEACIKMQKTIRMWLCKRRHKPRIDGLVKVGTLKKRLDKFNEVVSVLKDGKPEMNKQIKNLEISIDTLMAKIKSTMMTQEQIQKEYDALVKSSEELLSALQKKKQQEEEAERLRRIQEEMEKERKRREEDEKRRRKEEEERRMKLEMEAKRKQEEEERKKREDDEKRIQAEVEAQLARQKEEESQQQAVLEQERRDRELALRIAQSEAELISDEAQADLALRRSLDSYPVSKNDGTRPKMTPEQMAKEMSEFLSRGPAVLATKAAAGTKKYDLSKWKYAELRDTINTSCDIELLAACREEFHRRLKVYHAWKSKNKKRNTETEQRAPKSVTDYDFAPFLNNSPQQNPAAQIPARQREIEMNRQQRFFRIPFIRPADQYKDPQSKKKGWWYAHFDGPWIARQMELHPDKPPILLVAGKDDMEMCELNLEETGLTRKRGAEILPRQFEEIWERCGGIQYLQNAIESRQARPTYATAMLQSLLK
# Legend:
# [1] = molecular target: GFP-T6BP (TAX1BP1 / TRAF6-binding protein fused to GFP) (UniProt Q86VP1); test: affinity purification with mass spectrometry; GFP-T6BP or GFP alone from transfected HeLa-CIITA lysate (1% Triton X-100 buffer) on GFP-Trap agarose magnetic beads, 1 h 4°C, on-bead digestion, LC-MS/MS; three biological replicates; fold change ≥10, SAINT ≥0,8
# [2] = molecular target: GFP-T6BP (TAX1BP1 / TRAF6-binding protein fused to GFP), Q86VP1; test: as above; conditions: remark: other sources report otherwise
Binder,binding [1],binding [2]
B1,binds,–
B2,–,no binding

# No constants are given. Whether binding was seen depends on the method and setting. Binding seen in cells or lysates may run through a third protein. These calls come from enrichment with a bait or labelling near it, and not all partners need be listed. For some assays here: No binding means not detected with the bait.
